The test system of data set [1] is 3151prp DBD (Hypocrea jecorina (Trichoderma reesei)). Description: EMSA. To be noted: EMSA: 100 ng DBD or 60 ng IVT protein with 15 ng FAM probe, 15 min on ice; recombinant protein; protein details: GST removed by thrombin; label: 5'-FAM on strand 1. Background: Mobility shift assays separate free from complexed probe on a gel.
In data set [2] the test system is 7236prp DBD (Hypocrea jecorina (Trichoderma reesei)). As to the kind of experiment: EMSA. To be noted: two complexes, rather non-specific; EMSA: 100 ng DBD or 60 ng IVT protein with 15 ng FAM probe, 15 min on ice; recombinant protein; protein details: GST removed by thrombin; label: 5'-FAM on strand 1.
Another data set concerns GST. As to the kind of experiment: EMSA. Particulars: EMSA: 100 ng DBD or 60 ng IVT protein with 15 ng FAM probe, 15 min on ice; recombinant protein; label: 5'-FAM on strand 1.
Data set [3] relates to Xyr1 (Hypocrea jecorina (Trichoderma reesei)). As to the kind of experiment: EMSA. Particulars: positive control; EMSA: 100 ng DBD or 60 ng IVT protein with 15 ng FAM probe, 15 min on ice; protein translated in vitro; label: 5'-FAM on strand 1.
The target in data set [4] is T1, 2488prp from cell-free extract (UniProt G0RQ24).
T1 sequence (looked up, limits assumed): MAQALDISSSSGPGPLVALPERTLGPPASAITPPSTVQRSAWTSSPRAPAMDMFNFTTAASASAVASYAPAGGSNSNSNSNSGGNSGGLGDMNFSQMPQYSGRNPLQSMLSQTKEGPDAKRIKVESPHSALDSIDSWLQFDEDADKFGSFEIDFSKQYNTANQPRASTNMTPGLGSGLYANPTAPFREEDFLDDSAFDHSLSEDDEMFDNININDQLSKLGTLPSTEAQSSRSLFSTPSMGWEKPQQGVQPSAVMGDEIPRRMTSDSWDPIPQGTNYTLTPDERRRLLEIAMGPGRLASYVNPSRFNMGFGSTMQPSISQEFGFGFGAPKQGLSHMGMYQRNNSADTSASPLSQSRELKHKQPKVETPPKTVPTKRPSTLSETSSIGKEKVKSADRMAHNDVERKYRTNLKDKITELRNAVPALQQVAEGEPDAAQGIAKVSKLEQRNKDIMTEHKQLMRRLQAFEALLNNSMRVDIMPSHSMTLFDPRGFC
Description: pull-down. Particulars: streptavidin affinity, MS, poly(dIdC) and CKT067/CKT068 as nonspecific competitors; pull-down binding mix: 200 mM KCl, 200 ng/uL poly(dIdC), 200 ng/uL CKT067/CKT068, 8 mM spermidine, on ice; protein in an extract; label: 5'-biotin on strand 1.

The subject of data set [5] is 3151prp from cell-free extract. Description: pull-down. Particulars: streptavidin affinity, MS, poly(dIdC) and CKT067/CKT068 as nonspecific competitors; pull-down binding mix: 200 mM KCl, 200 ng/uL poly(dIdC), 200 ng/uL CKT067/CKT068, 8 mM spermidine, on ice; protein in an extract; label: 5'-biotin on strand 1.
The test system of data set [6] is 7236prp from cell-free extract. Description: pull-down. Particulars: streptavidin affinity, MS, poly(dIdC) and CKT067/CKT068 as nonspecific competitors; pull-down binding mix: 200 mM KCl, 200 ng/uL poly(dIdC), 200 ng/uL CKT067/CKT068, 8 mM spermidine, on ice; protein in an extract; label: 5'-biotin on strand 1.

For at least one entry, the source does not settle the construct or the ends of the probe. For part of these data: Negatives hold for the conditions tested. For part of these data: At least one verdict was read from the data and is not stated in words by the source. For part of these data: Where cells or extracts were used, other partners may take part. For part of these data: Protein sequences can lack the tags named with them.

In the case of “TGATGAAAGGAGAACAACTTCTAGACTGGGTAAATTGGTCAATGGCCAGCCGCTC (double strand) [Lpxyn2]”, the binding result in data set [1] was “no binding”; in data set [2] it was “binds”; with GST it was “no binding”; in data set [3], “binds”.
For the sequence “TGATGAAAGGAGAACAACTTCTAGACTG (double strand) [Bxyn2p250]”, the binding result in data set [4], in data set [5] and in data set [6] was “binds” throughout.
For “TGATGAAAGGAGAACAACGGAGAGACTGGGTAAATTGGTCAATGGCCAGCCGCTC (double strand) [Lpxyn2 M]”, the binding result in data set [1] was “no binding”; in data set [2] it was “binds”.

Source of the values: PMC3012607, “From an electrophoretic mobility shift assay to isolated transcription factors: a fast genomic-proteomic approach”.
